Measurements taken from PubChem BioAssay AID1347075 (National Center for Advancing Translational Sciences (NCATS), 2019).
Out of some 400,000 compounds screened, about 5,500 (1.4%) were called active. This list was built around the results that the source calls inconclusive (neither active nor inactive); the mix of calls is not that of the screen. Calls follow the shape of the dose curve; as a rule, active = well fitted cell-killing curve with a large enough effect; inconclusive = small, poorly fitted or top-dose-only effect, or effect the other way; inactive = flat fitted curve, though single readings scatter. Potencies beside an inconclusive call are fits to weak or partial responses and may not hold up.
% is scaled to controls: 0 for no effect and ±100 for the full control effect; potency is read from the fitted curve at half-maximal effect.

Experiment: qHTS assay for MDR1-selective chemotherapeutics: Primary screen using the parental adenocarcinoma cell KB-3-1; also: nearly all actives have a fitted effect of over 60% in size
Conditions: KB-3-1 viability, CellTiter-Glo ATP luminescence, 72 h; activity change, negative = cytotoxic: at 46.1 µM (top of the series)
Procedure, shortened: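 Parental KB-3-1 viability, qHTS format: 72 h compound exposure, 37 °C; CellTiter-Glo; media-only wells and DMSO plates as controls; concentration-effect fits on corrected data.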
For `C=CC[C@@H](CC(=O)N(CCO)Cc1ccccc1)C(=O)N[C@@H](COC(=O)[C@@H](CC=C)Cc1ccc(F)cc1)Cc1ccccc1`, the Potency was inconclusive: 29.1 µM [cytotoxic, single point]. With `CC(=O)Nc1ccc(C(=O)OCC(=O)N(Cc2ccccc2)C(C)(C)C)cc1` the Potency was “inactive”. With `O=C(NNC(=O)c1cc(Br)ccc1O)c1csc(N2CCOCC2)n1` the Potency was inconclusive: 29.1 µM [cytotoxic, single point]. For `COc1cccc(/C=C/c2ccncc2)c1OC`, the Potency was inconclusive: 18.4 µM [cytotoxic, single point]. For `CCOc1ccc(Nc2nc(Cc3nnc(SCC(=O)N(CC)CC)n3C)cs2)cc1`, the Potency was “inactive”. In the case of `COCCn1c(SCC(=O)N2CCCC2=O)nnc1-c1ccncc1`, the Potency is reported as “inactive”. With `Cc1cc(OC(F)F)ccc1NC(=S)NC1CCCC1` the Potency was “inactive”. For `O=C(N/N=C\c1ccc(-c2ccc([N+](=O)[O-])cc2)o1)c1ccc2c(c1)OCO2`, the Potency was “inactive”. With `CCOc1cccc(-c2c(C(=O)N/N=C/c3ccoc3)nnn2-c2nonc2N)c1` the Potency was “inactive”. With `CC(C)CCNC(=O)C(c1ccncc1)N(Cc1cccs1)C(=O)Cn1nnc(-c2ccc(F)cc2)n1` (stereo not drawn) the Potency was inconclusive: 7.31 µM [cytotoxic, partial curve]. With `O=C(/C=C/Nc1ccc([N+](=O)[O-])cc1Br)c1cccc2ccccc12` the Potency was active: 23.1 µM. With `COc1ccc(C(C)(O)c2nc(-c3cccc(F)c3)cs2)cc1` (stereo not drawn) the Potency was inconclusive: 23.1 µM [cytotoxic, single point]. In the case of `O=C(Nc1cccc(F)c1)c1cc(S(=O)(=O)NCCC2=CCCCC2)ccc1F`, the Potency is reported as inconclusive: 29.1 µM [cytotoxic, single point]. With `COc1ccc(Nc2nc(C(=O)N3CCc4cc(OC)c(OC)cc4C3)cs2)cc1` the Potency was inconclusive: 18.4 µM [cytotoxic, single point]. With `NC(=O)c1ccsc1NC(=O)c1ccc([N+](=O)[O-])o1` the Potency was inconclusive: 29.1 µM [cytotoxic, single point]. With `CCOC(=O)[C@]12CCC=C1N(Cc1ccc(Cl)cc1Cl)C(=O)[C@H](CC(=O)NCCCN1CCCC1=O)C2` the Potency was “inactive”. With `O=C(CCl)Nc1ccc(-c2ccccc2)cc1` the Potency was inconclusive: 29.1 µM [cytotoxic, single point]. For `CC(C)NC1=C(Cl)C(=O)c2ccccc2C1=O`, the Potency was inconclusive: 18.4 µM [cytotoxic, single point]. With `O=C(NCc1ccccn1)C(=O)N/N=C/c1ccc2c(c1)OCO2` the Potency was inconclusive: 16.4 µM [rising, partial curve, poor fit]. With `O=C(NCC1CCCO1)c1cc2c([nH]c3ccccc32)c(-c2cccc(Br)c2)n1` (stereo not drawn) the Potency was inconclusive: 29.1 µM [cytotoxic, partial curve, poor fit]. For `COc1ccc(CCNC(=O)c2ccc(N(C)S(=O)(=O)c3ccc(C)cc3)cc2)cc1OC`, the Potency was inconclusive: 14.6 µM [cytotoxic, single point]. For `NC(Cc1ccc(C(F)(F)F)cc1)c1csc(NC(=O)Nc2ccccc2Oc2ccccc2)n1` (stereo not drawn), the Potency was inconclusive: 29.1 µM [cytotoxic, single point]. In the case of `CCn1c(O)c(N=NC(=O)c2cccc(S(=O)(=O)N3CCCCC3)c2)c2ccccc21`, the Potency is reported as inconclusive: 16.4 µM [cytotoxic, partial curve]. In the case of `COC(=O)C12OCC34C(CC5C(C)=C(O)C(=O)CC5(C)C3C(O)C1O)OC(=O)C(OC(=O)C=C(C)C)C24` (stereo not drawn), the Potency is reported as active: 0.206 µM. For `CCOc1ccc(CCNC(=O)C(CC)n2nc(C)c3c(C)n(-c4ccccc4)nc3c2=O)cc1` (stereo not drawn), the Potency was “inactive”. For `CCCC(=O)N1CCOCC1c1cc(C(=O)NCc2ccccc2)no1` (stereo not drawn), the Potency was “inactive”. In the case of `CCCCc1c(-c2cccc(Cl)c2)ncn1CCc1ccccc1OC`, the Potency is reported as inconclusive: 18.4 µM [cytotoxic, single point]. In the case of `Cc1nc2ccn(Cc3cccnc3)c(=O)c2cc1C(=O)NCc1ccccc1`, the Potency is reported as inconclusive: 23.1 µM [cytotoxic, single point]. For `O=C(CSc1nnc(-c2ccccc2Br)n1-c1ccccc1)c1ccc(F)cc1`, the Potency was inconclusive: 18.4 µM [cytotoxic, single point]. For `Cc1c(C(=O)NCc2cccc([N+](=O)[O-])c2)sc(=O)n1Cc1ccc(C(C)C)cc1`, the Potency was inconclusive: 23.1 µM [cytotoxic, single point]. In the case of `C=CCC[C@@H](Cc1ccc(F)cc1)C(=O)OC[C@@H](Cc1c[nH]c2ccccc12)NC(=O)[C@H](CC=C)CC(=O)N(CCO)Cc1ccccc1`, the Potency is reported as inconclusive: 29.1 µM [cytotoxic, single point]. In the case of `Brc1ccc([C@H]2C=C[C@H]3CCCN4CC[C@H]2[C@@H]3[C@]42CO2)cc1`, the Potency is reported as inconclusive: 32.6 µM [cytotoxic, partial curve, poor fit]. In the case of `O=C(/C=C/c1ccco1)Nc1ccc(Oc2ccccc2)cc1`, the Potency is reported as inconclusive: 29.1 µM [cytotoxic, single point]. In the case of `COc1cc(NC(=O)c2cc3cccc(OC)c3o2)cc(C(=O)Nc2cccc(C(F)(F)F)c2)c1`, the Potency is reported as inconclusive: 23.1 µM [cytotoxic, single point]. For `COc1ccc(CCNC(=O)Cn2cc(C(F)(F)F)cc(Cl)c2=O)cc1`, the Potency was inconclusive: 16.4 µM [cytotoxic, partial curve]. In the case of `Cc1ccc(C)c(NC(=O)Cn2cnc3c(oc4ccccc43)c2=O)c1`, the activity change, negative = cytotoxic is reported as inconclusive: -0.556%. With `CC(=O)n1cc(C(C[N+](=O)[O-])SCCN)c2ccccc21` (stereo not drawn) the Potency was inconclusive: 29.1 µM [cytotoxic, single point]. With `COCOCCn1cc(CN2CCS(=O)(=O)N(Cc3ccc(-c4ccc(Cl)c(Cl)c4)cc3)C(C)C2=O)nn1` (stereo not drawn) the Potency was active: 14.6 µM. With `COC(=O)c1ccc(NC(=S)Nc2ccccn2)cc1` the Potency was inconclusive: 29.1 µM [cytotoxic, single point]. With `C[C@H](CO)N1C[C@H](C)[C@@H](CN(C)CC2CC2)Oc2c(NC(=O)Cc3ccccc3)cccc2C1=O` the Potency was active: 6.51 µM. In the case of `Cc1ccc(/C=C/C(=O)N2CCN(c3ccc(F)cc3)CC2)o1`, the Potency is reported as inconclusive: 29.1 µM [cytotoxic, single point]. In the case of `CCOC(=O)c1ccc(CN2C(=O)c3ccccc3S2(=O)=O)cc1`, the Potency is reported as “inactive”. For `CCn1c(SCC(=O)N/N=C/C=C/c2ccco2)nnc1-c1ccc(OC)cc1`, the Potency was “inactive”. In the case of `Cc1ccc(NC(=O)C2C3CCC(O3)C2C(=O)O)cc1C` (stereo not drawn), the Potency is reported as inconclusive: 16.4 µM [cytotoxic, single point]. With `Cc1sc2ncn(CC(=O)N3CCCCC3)c(=O)c2c1C` the Potency was inconclusive: 0.461 µM [rising, full curve]. With `CC(C)(C)c1ccc(-c2noc(CCC(=O)NCC3CCCO3)n2)cc1` (stereo not drawn) the Potency was inconclusive: 16.4 µM [cytotoxic, single point]. With `O=C(N[C@@H]1C/C=C\C[C@@H](CC(=O)N(CCO)Cc2ccccc2)C(=O)NC[C@H](c2ccccc2)OC1=O)OCC1c2ccccc2-c2ccccc21` the Potency was inconclusive: 29.1 µM [cytotoxic, single point]. In the case of `CCCc1ccc(S(=O)(=O)N2CCN(C(C)C(=O)NC3CCCC3)CC2)cc1` (stereo not drawn), the Potency is reported as “inactive”. In the case of `Cc1cc(C)c2c(=O)cc(C(=O)Nc3ccc(C)c(Cl)c3)oc2c1`, the Potency is reported as “inactive”. In the case of `CCc1ncc(CN2CCCC(C(=O)Nc3ccc(-c4cscn4)cc3)C2)cn1` (stereo not drawn), the Potency is reported as inconclusive: 25.9 µM [rising, single point]. With `CCOc1ccc2nc(NC(=O)C3CCCN(S(=O)(=O)c4cccs4)C3)sc2c1` (stereo not drawn) the Potency was inconclusive: 11.6 µM [cytotoxic, partial curve]. In the case of `COc1ccc(N2CCN(C(=O)CN=C3NS(=O)(=O)C(c4ccc(C)cc4)=C3C)CC2)cc1`, the Potency is reported as “inactive”. In the case of `CCCCN(C)CC(O)Cn1cc(/C=C/C(=O)c2cccs2)c2ccccc21` (stereo not drawn), the Potency is reported as inconclusive: 25.9 µM [cytotoxic, single point]. With `COc1cc(-c2nnc(COC(=O)c3cc(C)no3)o2)cc(OC)c1OC` the Potency was inconclusive: 29.1 µM [rising, single point]. In the case of `C/C(Cn1nnc([N+](=O)[O-])n1)=N\NC(=O)c1ccccc1Cl`, the Potency is reported as “inactive”. In the case of `Cc1ccc(S(=O)(=O)NC2=NCN(CC(=O)O)CN2)cc1`, the Potency is reported as “inactive”. With `NC(=O)c1ccc(-c2ccc(Br)cc2)o1` the Potency was active: 8.2 µM. With `O=C(c1ccncc1)c1ccc(N2CCN(C3CC(=O)N(Cc4ccccc4)C3=O)CC2)cc1` (stereo not drawn) the Potency was inconclusive: 29.1 µM [cytotoxic, single point]. With `CCOC(=O)c1sc(NC(=O)c2cccc(S(=O)(=O)N3CCc4ccccc43)c2)c(C#N)c1C` the Potency was active: 20.6 µM. With `O=C1c2ccccc2C(=O)N1CCCc1c[nH]c2ccc(Cl)cc12` the Potency was inconclusive: 20.6 µM [cytotoxic, single point]. With `COc1cccc(NC(=S)N(CCCN2CCCC2)Cc2cccn2Cc2ccc(Cl)cc2)c1` the Potency was inconclusive: 8.2 µM [cytotoxic, partial curve, poor fit]. In the case of `Cc1cccc(C(=O)NNC(=S)NC(=O)c2ccccc2)c1`, the Potency is reported as inconclusive: 29.1 µM [cytotoxic, single point]. With `CC1=C(C(=O)OC2CCCC2)C(c2ccc(C)o2)C2=C(CC(c3cccs3)CC2=O)N1` (stereo not drawn) the Potency was “inactive”. With `CCS(=O)(=O)N1CCC(C(=O)NCCCOC)CC1` the Potency was “inactive”. With `CC(=O)Nc1ccccc1-c1nc2ccccc2n(C(C)C(=O)Nc2cc(Cl)ccc2C)c1=O` (stereo not drawn) the Potency was “inactive”. With `C[N+]1(CC(=O)c2ccc3ccccc3c2)CCOCC1` the activity change, negative = cytotoxic was inconclusive: 0%. For `CC(=O)c1c(C)[nH]c(C(=O)CSc2nnc(C3CCCCC3)n2N)c1C`, the Potency was “inactive”. For `CCN(c1ccccc1)S(=O)(=O)c1ccc(Cl)c(NC(=O)CN(C)Cc2cccc(F)c2)c1`, the Potency was inconclusive: 16.4 µM [cytotoxic, single point].
